Measurements reported in PubChem BioAssay AID504467 (National Center for Advancing Translational Sciences (NCATS), 2011).
In all, about 330,000 compounds went through this assay and about 7,700 (2.3%) were called active. This list was built around the results that the source calls inconclusive (neither active nor inactive); the mix of calls is not that of the screen. Calls follow the shape of the dose curve; as a rule, active = well fitted inhibition curve with a large enough effect; inconclusive = small, poorly fitted or top-dose-only effect, or effect the other way; inactive = flat fitted curve, though single readings scatter. Potencies beside an inconclusive call are fits to weak or partial responses and may not hold up.

assay: qHTS screen for small molecules that inhibit ELG1-dependent DNA repair in human embryonic kidney (HEK293T) cells expressing luciferase-tagged ELG1; details: HEK293T ELG1-luciferase reporter, luminescence, 16 h, DNA damage induced by 5-fluorouridine; activity change, negative = inhibition: at 46.1 µM (top of the series); also: nearly all actives have a fitted effect of over 55% in size
Outline: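 In this reporter screen, reduction of luminescence relative to DMSO vehicle indicated activity. Compounds and 5-fluorouridine were added together to 2,000 cells per well, incubated for 16 hr at 37 °C, then developed with ONE-Glo.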
% is scaled to controls: 0 for no effect and ±100 for the full control effect; potency is read from the fitted curve at half-maximal effect.

Row | Compound | activity change, negative = inhibition | Potency
1 | C=CCc1cc(Cl)ccc1OCCCNC(C)CC (centres undefined) | inactive: -11.3% | 
2 | COC(=O)N1C(=O)[C@@](c2ccccc2)(C2CCCCC2)N1C(=O)OC | inactive: -0.304% | 
3 | O=C(/C=C/c1c(F)cccc1Cl)N1CCc2ccccc2C1 |  | inconclusive: 12.6 µM [activator, single point]
4 | CCN(CC)c1ccc(Nc2nc(Cl)ncc2Br)cc1 |  | inconclusive: 29.1 µM [inhibitor, single point]
5 | CCOC(=O)/C(C#N)=C/C1=C(N2CCOCC2)CC(C)(C)OC1 |  | inconclusive: 29.1 µM [inhibitor, single point]
6 | CCc1ccccc1NC1=NCC(=O)N1C1CCCC1 | inactive: 24.7% | 
7 | Nc1nc2c([N+](=O)[O-])cccc2s1 |  | inconclusive: 18.3 µM [activator, single point]
8 | CC1Cc2cc(/C(O)=C3/C(=O)C(=O)N(CCCn4ccnc4)C3c3ccc(F)cc3)ccc2O1 (centres undefined) |  | inconclusive: 25.9 µM [activator, partial curve, poor fit]
9 | COc1ccc(C(=O)O/N=C(\N)c2ccccc2)cc1 |  | inconclusive: 5.8 µM [activator, partial curve]
10 | Cc1ccc(-c2cc(C(=O)Nc3cc(C(=O)O)ccc3C)c3ccccc3n2)cc1 |  | inconclusive: 3.66 µM [activator, partial curve, poor fit]
11 | O=C(CC(CC(=O)c1ccccc1)C(=O)O)c1ccccc1 | inactive: 10.2% | 
12 | Fc1ccc(-c2csc(NC3=NCCC3)n2)cc1 |  | inconclusive: 23.1 µM [activator, partial curve]
13 | Cc1ccc(C(=O)OC2CCCN(C)C2)cc1 (centres undefined) |  | inconclusive: 14.6 µM [activator, single point]
14 | Cc1cc(C)nc(NC(=O)/C=C/c2ccc3c(c2)OCO3)c1 |  | inconclusive: 9.2 µM [activator, partial curve]
15 | COc1cc(OC)c(NC(=O)CCCNC(=O)Cn2cnc3sc(C)c(C)c3c2=O)cc1Cl |  | inconclusive: 5.17 µM [inhibitor, full curve, poor fit]
16 | CCCCN(C)S(=O)(=O)c1ccc(C(=O)Nc2nnc(-c3cccs3)o2)cc1 | inactive: -18.2% | 
17 | CC(C)(Cc1ccc(O)cc1)NC(=O)CC(=O)N/N=C/c1ccc([N+](=O)[O-])cc1 |  | inconclusive: 29.1 µM [inhibitor, partial curve, poor fit]
18 | COc1cc(C(=O)NC2=NCCS2)cc(OC)c1OC |  | inconclusive: 20.6 µM [activator, partial curve, poor fit]
19 | COc1cccc(-c2nn(-c3ccccc3)cc2C(=O)Nc2nccs2)c1 |  | inconclusive: 7.08 µM [inhibitor, full curve, poor fit]

A second format for four compounds above.
Row	Compound	activity change, negative = inhibition	Potency
2	COC(=O)N1C(=O)[C@@](c2ccccc2)(C2CCCCC2)N1C(=O)OC	inactive: -0.304%	
8	CC1Cc2cc(/C(O)=C3/C(=O)C(=O)N(CCCn4ccnc4)C3c3ccc(F)cc3)ccc2O1 (centres undefined)		inconclusive: 25.9 µM [activator, partial curve, poor fit]
15	COc1cc(OC)c(NC(=O)CCCNC(=O)Cn2cnc3sc(C)c(C)c3c2=O)cc1Cl		inconclusive: 5.17 µM [inhibitor, full curve, poor fit]
18	COc1cc(C(=O)NC2=NCCS2)cc(OC)c1OC		inconclusive: 20.6 µM [activator, partial curve, poor fit]
